Results from the supplement of paper PMC12823440, “Inhibitors supercharge kinase turnover through native proteolytic circuits” (Nature, 2025).
Counter-ions that a name gives are not always drawn. This is one part of the list. Hit calls seldom repeat between salt and free forms of one compound.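 Kinases were expressed as nanoluciferase fusions in K562 cells and luminescence was read every 4 h between 2 and 18 h as percent of control, DMSO set to 100% and a positive control to 0%. A time point counts as decreased when the signal drops significantly (2 sigma). The hit call is the authors' own, does not follow from the count of time points alone, and its rule is not shown.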

Sequences of proteins named here, by UniProt entry; tags and fusion partners are left off. A change or cut given only in a name is not applied to a line headed by its entry.
UniProt P29597: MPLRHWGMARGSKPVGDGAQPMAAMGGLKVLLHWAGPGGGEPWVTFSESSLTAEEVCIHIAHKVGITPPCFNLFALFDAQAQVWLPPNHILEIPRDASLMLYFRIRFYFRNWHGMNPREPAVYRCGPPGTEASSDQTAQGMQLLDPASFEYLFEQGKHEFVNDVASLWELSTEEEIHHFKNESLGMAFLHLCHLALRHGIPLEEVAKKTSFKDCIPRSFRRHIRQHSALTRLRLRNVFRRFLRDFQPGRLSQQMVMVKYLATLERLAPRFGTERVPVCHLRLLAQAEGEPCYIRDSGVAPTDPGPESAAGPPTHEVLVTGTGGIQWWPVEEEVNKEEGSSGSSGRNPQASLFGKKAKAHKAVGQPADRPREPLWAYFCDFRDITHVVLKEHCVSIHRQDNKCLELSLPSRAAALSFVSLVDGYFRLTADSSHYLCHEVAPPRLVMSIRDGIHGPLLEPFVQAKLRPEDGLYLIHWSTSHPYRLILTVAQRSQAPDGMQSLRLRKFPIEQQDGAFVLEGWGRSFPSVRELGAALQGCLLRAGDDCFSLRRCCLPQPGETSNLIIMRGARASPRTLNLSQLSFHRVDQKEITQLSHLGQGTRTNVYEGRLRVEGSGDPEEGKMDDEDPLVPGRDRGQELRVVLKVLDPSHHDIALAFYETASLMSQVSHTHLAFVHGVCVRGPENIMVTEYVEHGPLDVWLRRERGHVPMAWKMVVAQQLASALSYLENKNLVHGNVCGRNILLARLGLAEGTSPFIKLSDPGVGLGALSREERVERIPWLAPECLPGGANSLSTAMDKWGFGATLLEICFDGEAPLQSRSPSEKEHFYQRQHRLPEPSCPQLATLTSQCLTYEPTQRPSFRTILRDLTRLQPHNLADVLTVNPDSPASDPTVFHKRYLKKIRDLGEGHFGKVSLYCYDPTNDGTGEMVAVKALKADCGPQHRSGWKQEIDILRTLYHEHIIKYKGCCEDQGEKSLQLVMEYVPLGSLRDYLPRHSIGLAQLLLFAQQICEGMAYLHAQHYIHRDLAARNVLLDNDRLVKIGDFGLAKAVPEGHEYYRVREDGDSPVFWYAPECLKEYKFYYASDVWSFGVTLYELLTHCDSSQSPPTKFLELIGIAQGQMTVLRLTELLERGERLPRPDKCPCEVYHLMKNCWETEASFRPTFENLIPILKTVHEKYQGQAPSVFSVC
UniProt Q6PHR2: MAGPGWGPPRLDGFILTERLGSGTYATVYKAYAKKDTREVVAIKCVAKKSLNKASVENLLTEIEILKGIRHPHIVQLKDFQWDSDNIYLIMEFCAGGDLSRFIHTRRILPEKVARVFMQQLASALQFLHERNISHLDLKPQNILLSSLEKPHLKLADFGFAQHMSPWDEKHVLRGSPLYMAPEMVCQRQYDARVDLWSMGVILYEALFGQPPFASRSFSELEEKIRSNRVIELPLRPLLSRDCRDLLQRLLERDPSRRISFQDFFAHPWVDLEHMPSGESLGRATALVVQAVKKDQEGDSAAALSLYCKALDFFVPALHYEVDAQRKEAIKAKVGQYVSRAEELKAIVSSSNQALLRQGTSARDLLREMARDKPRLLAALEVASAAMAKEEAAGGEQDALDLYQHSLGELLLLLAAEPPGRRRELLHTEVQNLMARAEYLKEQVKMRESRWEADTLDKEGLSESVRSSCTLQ

target: TYK2 (UniProt P29597); experiment: kinase-Nluc reporter destabilization hit call (1 = scored as downregulated) (binary); higher = compound decreases kinase abundance; details: K562; 2-18 h

kinase-Nluc reporter destabilization hit call, inactive:
Cc1cc2cc(Nc3ccnc(Nc4ccc5[nH]c(C)cc5c4)n3)ccc2[nH]1 (2.5 µM) 0
Cc1cc(Nc2cc(Cl)nc(Oc3ccc([N+](=O)[O-])cc3)n2)n[nH]1 [Autophinib] (2.5 µM) 0
Fc1ccc(-c2nc(-c3ccccc3F)[nH]c2-c2ccncc2)cc1 (2.5 µM) 0
OC(COc1ccc(C(F)(F)F)cc1)CN(Cc1ccccc1)Cc1ccccc1 (stereo unspecified) (2.5 µM) 0
COc1ccc2[nH]cc(/C=C3\C(=O)Nc4ccc(NC(=O)CCN5CCCCC5)cc43)c2c1 (2.5 µM) 0
CS(=O)(=O)c1ccc(-c2noc(C(F)(F)F)c2-c2ccccc2)cc1 (10 µM) 0
COCCO[C@@H]1[C@H](O)[C@@H](CO)O[C@H]1n1cnc2c(=O)[nH]c(N)nc21 [2′-O-(2-Methoxyethyl)guanosine] (10 µM) 0
Cn1cnc(-c2cc3nccc(Oc4ccc(NC(=S)NC(=O)Cc5ccccc5)cc4F)c3s2)c1 [MGCD-265 analog] (10 µM) 0
Cc1noc(C)c1-c1ccc(-c2cc(C(N)=O)c(NC(N)=O)s2)c(O[C@H]2CCNC2)c1 (10 µM) 0
Cc1c(CN2CCN(S(C)(=O)=O)CC2)sc2c(N3CCOCC3)nc(-c3cnc(N)nc3)nc12 (2.5 µM) 0
CC(C)CN(CC(=O)N1CCN(CC(OCc2ccc3ccccc3c2)c2ccc(Cl)cc2Cl)CC1)CC(C)C (stereo unspecified) [LYN-1604 (dihydrochloride)] (2.5 µM) 0
CC/C=C\C/C=C\C/C=C\CCCCCCCC(=O)O [α-Linolenic acid] (10 µM) 0
Nc1ncnc2c1c(-c1ccc(Oc3ccccc3)cc1)nn2C1CCNCC1 [N-piperidine Ibrutinib (hydrochloride)] (10 µM) 0
CC(C)NC(=O)N1CC[C@H](NC2=Nc3cc(F)ccc3N(CC(F)F)c3ccc(Cl)cc32)C1 (10 µM) 0
O=C(Nc1cc(Oc2cc(F)c(NC(=O)C3(C(=O)Nc4ccc(F)cc4)CC3)cc2F)ccn1)C1CC1 [Altiratinib] (10 µM) 0
COCCOc1ccc(-c2cn(-c3ccccc3)c3nc[nH]c(=O)c23)cc1 (10 µM) 0
Cc1ccc2nc(NC(=O)CSc3nc4c(c(=O)n3-c3ccccc3)SCC4)sc2c1 (2 µM) 0
C[C@]1(O)CCC[C@@H]1n1c(=O)c(C(F)F)cc2cnc(NC3CCN(S(C)(=O)=O)CC3)nc21 (10 µM) 0
NC1(Cc2ccc(Cl)cc2)CCN(c2ncnc3[nH]ccc23)CC1 (10 µM) 0
O=C(O)c1cc(O)ccc1O [2,5-Dihydroxybenzoic acid] (10 µM) 0
C=C(CCC=C(C)C)[C@H]1CC[C@]2(C)[C@@H]1[C@H](O)C[C@@H]1[C@@]3(C)CC[C@H](O[C@@H]4O[C@H](CO)[C@@H](O)[C@H](O)[C@H]4O[C@@H]4O[C@H](CO)[C@@H](O)[C@H](O)[C@H]4O)C(C)(C)[C@@H]3CC[C@]12C [Ginsenoside Rk1] (10 µM) 0
CC(C)=CC[C@H](O)C1=CC(=O)c2c(O)ccc(O)c2C1=O [(-)-Alkannin] (2.5 µM) 0
N#Cc1c(-c2ccccc2)cc(-c2cc(Br)ccc2O)[nH]c1=O (10 µM) 0
CCn1c(-c2nonc2N)nc2cnc(Oc3cccc(NC(=O)c4ccc(OCCN5CCOCC5)cc4)c3)cc21 (10 µM) 0
CO[C@H]1C[C@@H]2CC[C@@H](C)[C@@](O)(O2)C(=O)C(=O)N2CCCC[C@H]2C(=O)O[C@H]([C@H](C)C[C@@H]2CC[C@@H](O)[C@H](OC)C2)CC(=O)[C@H](C)/C=C(\C)[C@@H](O)[C@@H](OC)C(=O)[C@H](C)C[C@H](C)/C=C/C=C/C=C/1C [Rapamycin] (10 µM) 0
CC(C)=CCC[C@](C)(O[C@@H]1O[C@H](CO)[C@@H](O)[C@H](O)[C@H]1O)[C@H]1CC[C@]2(C)[C@@H]1[C@H](O)C[C@@H]1[C@@]3(C)CC[C@H](O)C(C)(C)[C@@H]3[C@@H](O[C@@H]3O[C@H](CO)[C@@H](O)[C@H](O)[C@H]3O[C@@H]3O[C@@H](C)[C@H](O)[C@@H](O)[C@H]3O)C[C@]12C [Ginsenoside Re] (10 µM) 0
Cn1c(=O)c(F)c(Nc2ccc(I)cc2F)c2c(=O)n(C[C@@H](O)CO)cnc21 (10 µM) 0

target: ULK3 (UniProt Q6PHR2); experiment: as above; details: K562; 2-18 h

kinase-Nluc reporter destabilization hit call, inactive:
NCc1ccc(Nc2ncc(F)c(Nc3ccccc3)n2)cc1 (10 µM) 0
C=C(C)C(=O)Nc1cccc(-c2ncnc3[nH]cc(C(=O)OCC)c23)c1 (10 µM) 0
CCOc1cc(C(=O)N2CCC(N3CCN(C)CC3)CC2)ccc1Nc1ncc2c(n1)N(C1CCCC1)c1ccccc1C(=O)N2C (10 µM) 0
CCOc1ccc(C(=O)Nc2ncc([N+](=O)[O-])s2)cc1 (10 µM) 0
CNC(=O)Nc1ccc(-c2cc(-c3ccnc(Nc4ccc(C)c(S(=O)(=O)N(C)C)c4)n3)ccn2)cc1 [hSMG-1 inhibitor 11e] (2.5 µM) 0
CNC(=O)c1ccc(-c2cnc3cnc(C(=O)N(C)c4ccc(Cl)cc4)cn23)cc1 (2.5 µM) 0
COc1cccc(-n2c(=O)[nH]c3cc(Cl)n(-c4ccc(-c5cccc(OC)c5O)cc4)c3c2=O)c1 (2.5 µM) 0
O=C(Nc1cccnc1)c1cc(C(=O)c2c(F)cccc2Br)c[nH]1 (10 µM) 0
CN(CC(=O)N(Cc1ccc(C2CCCCC2)cc1)c1ccc(C(=O)O)cc1)S(=O)(=O)c1c(F)c(F)c(F)c(F)c1F (2.5 µM) 0
COc1c(NC(=O)C(=O)c2ccc(OCCN3CCOCC3)c3ccccc23)cc(C(C)(C)C)cc1NS(C)(=O)=O (2.5 µM) 0
CC(C)CC1(O)CCN(C(=O)c2ccc(NS(=O)(=O)c3cccc4nccnc34)cc2)CC1 (10 µM) 0
O=C(/C=C/c1ccc(O)c(O)c1)c1ccc(O[C@@H]2O[C@H](CO)[C@@H](O)[C@H](O)[C@H]2O)c(O)c1O [Marein] (10 µM) 0
Cc1cc2cc(Nc3ccnc(Nc4ccc5[nH]c(C)cc5c4)n3)ccc2[nH]1 (2.5 µM) 0
Cc1cc(Nc2cc(Cl)nc(Oc3ccc([N+](=O)[O-])cc3)n2)n[nH]1 [Autophinib] (2.5 µM) 0
Fc1ccc(-c2nc(-c3ccccc3F)[nH]c2-c2ccncc2)cc1 (2.5 µM) 0
OC(COc1ccc(C(F)(F)F)cc1)CN(Cc1ccccc1)Cc1ccccc1 (stereo unspecified) (2.5 µM) 0
COc1ccc2[nH]cc(/C=C3\C(=O)Nc4ccc(NC(=O)CCN5CCCCC5)cc43)c2c1 (2.5 µM) 0
CS(=O)(=O)c1ccc(-c2noc(C(F)(F)F)c2-c2ccccc2)cc1 (10 µM) 0
COCCO[C@@H]1[C@H](O)[C@@H](CO)O[C@H]1n1cnc2c(=O)[nH]c(N)nc21 [2′-O-(2-Methoxyethyl)guanosine] (10 µM) 0
Cn1cnc(-c2cc3nccc(Oc4ccc(NC(=S)NC(=O)Cc5ccccc5)cc4F)c3s2)c1 [MGCD-265 analog] (10 µM) 0
Cc1noc(C)c1-c1ccc(-c2cc(C(N)=O)c(NC(N)=O)s2)c(O[C@H]2CCNC2)c1 (10 µM) 0
Cc1c(CN2CCN(S(C)(=O)=O)CC2)sc2c(N3CCOCC3)nc(-c3cnc(N)nc3)nc12 (2.5 µM) 0
CC(C)CN(CC(=O)N1CCN(CC(OCc2ccc3ccccc3c2)c2ccc(Cl)cc2Cl)CC1)CC(C)C (stereo unspecified) [LYN-1604 (dihydrochloride)] (2.5 µM) 0
CC/C=C\C/C=C\C/C=C\CCCCCCCC(=O)O [α-Linolenic acid] (10 µM) 0
Nc1ncnc2c1c(-c1ccc(Oc3ccccc3)cc1)nn2C1CCNCC1 [N-piperidine Ibrutinib (hydrochloride)] (10 µM) 0
CC(C)NC(=O)N1CC[C@H](NC2=Nc3cc(F)ccc3N(CC(F)F)c3ccc(Cl)cc32)C1 (10 µM) 0
O=C(Nc1cc(Oc2cc(F)c(NC(=O)C3(C(=O)Nc4ccc(F)cc4)CC3)cc2F)ccn1)C1CC1 [Altiratinib] (10 µM) 0
COCCOc1ccc(-c2cn(-c3ccccc3)c3nc[nH]c(=O)c23)cc1 (10 µM) 0
Cc1ccc2nc(NC(=O)CSc3nc4c(c(=O)n3-c3ccccc3)SCC4)sc2c1 (2 µM) 0
C[C@]1(O)CCC[C@@H]1n1c(=O)c(C(F)F)cc2cnc(NC3CCN(S(C)(=O)=O)CC3)nc21 (10 µM) 0
NC1(Cc2ccc(Cl)cc2)CCN(c2ncnc3[nH]ccc23)CC1 (10 µM) 0
O=C(O)c1cc(O)ccc1O [2,5-Dihydroxybenzoic acid] (10 µM) 0
C=C(CCC=C(C)C)[C@H]1CC[C@]2(C)[C@@H]1[C@H](O)C[C@@H]1[C@@]3(C)CC[C@H](O[C@@H]4O[C@H](CO)[C@@H](O)[C@H](O)[C@H]4O[C@@H]4O[C@H](CO)[C@@H](O)[C@H](O)[C@H]4O)C(C)(C)[C@@H]3CC[C@]12C [Ginsenoside Rk1] (10 µM) 0
CC(C)=CC[C@H](O)C1=CC(=O)c2c(O)ccc(O)c2C1=O [(-)-Alkannin] (2.5 µM) 0
